# Test results published in US9464064B2, “HCV helicase inhibitors and methods of use thereof” (University of Kansas, priority 2011, dated 2016).
# By UniProt entry, the sequences of proteins in these tests, tags left out. Residues count along the entry.
# UniProt Q9WMX2, 1192-1657: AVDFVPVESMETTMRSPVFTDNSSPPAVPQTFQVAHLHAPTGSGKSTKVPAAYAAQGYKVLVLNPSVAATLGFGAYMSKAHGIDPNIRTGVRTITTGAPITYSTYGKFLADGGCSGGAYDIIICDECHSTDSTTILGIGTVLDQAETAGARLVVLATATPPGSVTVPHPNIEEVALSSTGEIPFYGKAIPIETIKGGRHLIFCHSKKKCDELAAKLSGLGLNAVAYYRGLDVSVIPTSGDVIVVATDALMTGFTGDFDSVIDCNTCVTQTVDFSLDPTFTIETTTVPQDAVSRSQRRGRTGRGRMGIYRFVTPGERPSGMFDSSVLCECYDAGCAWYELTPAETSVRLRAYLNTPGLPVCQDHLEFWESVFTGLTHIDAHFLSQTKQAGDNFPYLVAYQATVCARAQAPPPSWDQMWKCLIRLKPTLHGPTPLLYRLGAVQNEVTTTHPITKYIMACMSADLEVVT
# Biological target: T1, HCV NS3 helicase NS3h_1b(con1) (Hepatitis C virus genotype 1b, UniProt Q9WMX2)
# T1 construct: truncated C-terminally His-tagged NS3 proteins lacking the N-terminal protease, called NS3h; His-tag (C); made in house
# Assay: MBHA screen of NCI mechanistic set library at 20 μM (percent inhibition, compound interference)
# Type: biochemical
# Conditions: compounds at 20 μM
# Procedure: All molecular beacon-based helicase assays (MBHAs) were performed according to known methods (Belon & Frick (2008) supra; Belon & Frick (2009) supra). […] In each flat, black 384-well plate, 56 compounds were tested, in triplicate, along with three negative controls (DMSO only), three positive controls (500 nM dT20), and two wells with no enzyme. Fluorescence was read before ATP (F0) addition and 30 minutes after ATP was added to 1 mM (F30) using a Tecan Infinite M200 fluorescence microplate reader with excitation and emission wavelengths set to 643 and 670 nm, respectively. Percent inhibition was calculated with equation 1, and compound interference in the MBHA was calculated with equation 2.
# In Equations 1 and 2, Fc0 is the fluorescence of the reactions containing the test compound before adding ATP, Fc30 is the fluorescence of the test compound reaction 30 minutes after adding ATP. […]
# To identify HCV helicase inhibitors, the MBHA was first used to screen the National Cancer Institute Developmental Therapeutics Program's mechanistic set library. […] Compounds were ranked by their ability to inhibit HCV helicase-catalyzed DNA unwinding as calculated from Equation 1.
# Compound interference in the MBHA was evaluated by comparing the fluorescence of reactions containing each compound to the fluorescence of DMSO-only negative controls before ATP was added.
smiles,measurement,setting,value
COc1cc2c(c(OC)c1OC)-c1ccc(OC)c(=O)cc1[C@@H](N)CC2.O=C(O)C(O)C(O)C(=O)O [Compound 36354],Inh. (%) (Inhibition),"MBHA with a DNA substrate, calculated from Equation 1",−23.7%
same,Int.* (Ratio) (Interference),assay interference calculated with Equation 2 (fluorescence vs DMSO-only controls before ATP),1.01 Ratio
